PubChem BioAssay AID1347076 (National Center for Advancing Translational Sciences (NCATS), 2019)
About 13,000 (3.2%) of roughly 400,000 compounds were called active. The inconclusive results got no clear call from the source; some entries with a clear call stand among them for comparison. The call rests on the fitted dose curve; in most records, active means well fitted cell-killing curve with a large enough effect; inconclusive means small, poorly fitted or top-dose-only effect, or effect the other way; inactive means flat fitted curve, though single readings scatter. A potency beside an inconclusive call is a rough fit, not a confirmed value.

Experiment: qHTS assay for MDR1-selective chemotherapeutics: Primary screen using the drug-selected MDR subline cells KB-V1; further: nearly all actives have a fitted effect of over 60% in size
Conditions: KB-V1 MDR cells viability, CellTiter-Glo, 72 h; activity change, negative = cytotoxicity: at 46.1 µM (top of the series)
Summary of the method: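 KB-V1 MDR subline cells in DMEM (phenol-red free, 10% FBS) exposed to compounds in qHTS concentration series for 72 h at 37 degrees C. Viability read by CellTiter-Glo luminescence; concentration-effect curves fitted after normalization and correction.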
On the % scale 0 is the no-effect control and ±100 the full control effect; potency means the concentration at half of the fitted maximal effect.

| Compound | Potency | activity change, negative = cytotoxicity |
| --- | --- | --- |
| O=C(NC1CCCCCCC1)c1cc(COc2ccc3ncccc3c2)on1 | active: 1.84 µM |  |
| CN(C)c1ccc(C(CNS(=O)(=O)c2ccc(F)cc2)c2c[nH]c3ccccc23)cc1 (configuration not stated) | inconclusive: 18.4 µM [cytotoxic, single point] |  |
| CC(=O)NC(=S)Nc1cccc2ccc(C)nc12 | inconclusive: 20.6 µM [cytotoxic, single point] |  |
| COc1ccc(CN2CCN(Cc3cc(=O)oc4cc(C)ccc34)CC2)c(OC)c1OC |  | inactive: -31.5% |
| CC1=NN(/C(=N\c2nnc(C)s2)Nc2ccc(C(C)(C)C)cc2)[C@H](c2ccc(C)cc2)S1 |  | inactive: -22.9% |
| Nc1ccc(C(=O)OCCCc2nc3cc4ccccc4cc3[nH]2)cc1 | inconclusive: 20.6 µM [cytotoxic, partial curve] |  |
| CN1N=C(/C=C/c2ccccc2)CCC1=O |  | inactive: -20.5% |
| Cc1nc2ccc(NC(=O)CCC3CCCC3)cc2s1 |  | inactive: 13.8% |
| CN(C)C(CNC(=O)CNC(=O)c1ccc2ccccc2c1)c1ccccc1 (configuration not stated) | inconclusive: 11.6 µM [cytotoxic, partial curve] |  |
| CCN(CCO)Cc1csc2ccccc12 | inconclusive: 32.6 µM [rising, single point] |  |
| COc1ccc(CC(=O)Nc2nn(C)c3nc4c(C)cccc4cc23)cc1 |  | inactive: 6.72% |
| CCN(CC(=O)Nc1c(F)cccc1F)C(=O)Cn1[nH]c(=O)c2ccccc2c1=O | inconclusive: 29.1 µM [rising, single point] |  |
| CCOC(=O)C1CCCN(C(=O)c2ccc3nc(-c4ccccc4)c(-c4ccccc4)nc3c2)C1 (configuration not stated) |  | inactive: -0.572% |
| CNc1oc(-c2ccccc2Cl)nc1P(=O)(c1ccccc1)c1ccccc1 |  | inactive: -15.7% |
| C[C@@H]1C(c2cccc(Cl)c2)=NN(c2ccccc2)[C@H]1C(=O)N1CCOC1=O |  | inactive: -0.11% |
| CC(=O)c1ccc(CCCCCCCCCC(=O)O)s1 |  | inactive: 0.675% |
| C=CCn1cc(C(=O)NCCN(CC)CC)c(=O)c2cc(S(=O)(=O)N3CCCCCC3)ccc21 | inconclusive: 16.4 µM [rising, partial curve, poor fit] |  |
| CC(C)=CC(=O)OCC(=O)Nc1ccc(Cl)cc1 | inconclusive: 11.6 µM [rising, partial curve] |  |
| CC(=O)N(C(C)=O)N1C(=O)c2cccc3c(N4CCOCC4)ccc(c23)C1=O |  | inactive: 0.0354% |
| CCc1cccc(NC(=O)Cn2c(=O)ccc3cc(S(=O)(=O)N4CCC(C)CC4)ccc32)c1 |  | inactive: 0% |
| CC(C)(O)C#Cc1ccc(C(=O)NC2CCCCC2)s1 | inconclusive: 23.1 µM [cytotoxic, single point] |  |
| CCCCC(=O)OC1CCC2C3CCc4cc(O)ccc4C3CCC12C (configuration not stated) | inconclusive: 20.6 µM [cytotoxic, single point] |  |
| Cc1cc(C)c2c(CC(=O)N3CCN(c4cccc(Cl)c4)CC3)coc2c1 | inconclusive: 32.6 µM [cytotoxic, single point] |  |
| Fc1cccc(/C=N/Nc2nncc3ccccc23)c1 |  | inactive: -14.5% |

14 compounds out of the list, arranged by molecular weight, descending:

| Compound | Potency | activity change, negative = cytotoxicity |
| --- | --- | --- |
| C=CCn1cc(C(=O)NCCN(CC)CC)c(=O)c2cc(S(=O)(=O)N3CCCCCC3)ccc21 | inconclusive: 16.4 µM [rising, partial curve, poor fit] |  |
| CN(C)c1ccc(C(CNS(=O)(=O)c2ccc(F)cc2)c2c[nH]c3ccccc23)cc1 (configuration not stated) | inconclusive: 18.4 µM [cytotoxic, single point] |  |
| C[C@@H]1C(c2cccc(Cl)c2)=NN(c2ccccc2)[C@H]1C(=O)N1CCOC1=O |  | inactive: -0.11% |
| Cc1cc(C)c2c(CC(=O)N3CCN(c4cccc(Cl)c4)CC3)coc2c1 | inconclusive: 32.6 µM [cytotoxic, single point] |  |
| CC(=O)N(C(C)=O)N1C(=O)c2cccc3c(N4CCOCC4)ccc(c23)C1=O |  | inactive: 0.0354% |
| O=C(NC1CCCCCCC1)c1cc(COc2ccc3ncccc3c2)on1 | active: 1.84 µM |  |
| CN(C)C(CNC(=O)CNC(=O)c1ccc2ccccc2c1)c1ccccc1 (configuration not stated) | inconclusive: 11.6 µM [cytotoxic, partial curve] |  |
| COc1ccc(CC(=O)Nc2nn(C)c3nc4c(C)cccc4cc23)cc1 |  | inactive: 6.72% |
| CCCCC(=O)OC1CCC2C3CCc4cc(O)ccc4C3CCC12C (configuration not stated) | inconclusive: 20.6 µM [cytotoxic, single point] |  |
| Nc1ccc(C(=O)OCCCc2nc3cc4ccccc4cc3[nH]2)cc1 | inconclusive: 20.6 µM [cytotoxic, partial curve] |  |
| CC(=O)c1ccc(CCCCCCCCCC(=O)O)s1 |  | inactive: 0.675% |
| Cc1nc2ccc(NC(=O)CCC3CCCC3)cc2s1 |  | inactive: 13.8% |
| CC(=O)NC(=S)Nc1cccc2ccc(C)nc12 | inconclusive: 20.6 µM [cytotoxic, single point] |  |
| CCN(CCO)Cc1csc2ccccc12 | inconclusive: 32.6 µM [rising, single point] |  |

More structures

| Compound | Potency | activity change, negative = cytotoxicity |
| --- | --- | --- |
| Cc1cc(C)c(S(=O)(=O)N2CCCCC2CCNC(=O)C(=O)NCc2cccnc2)c(C)c1 (configuration not stated) | active: 8.2 µM |  |
| O=[N+]([O-])c1cccc(Cl)c1NCCNS(=O)(=O)c1ccccc1 | inconclusive: 20.6 µM [cytotoxic, single point] |  |
| COc1cccc(-n2c(C)nnc2SCC(=O)Nc2ccccc2N2CCOCC2)c1 | inconclusive: 8.2 µM [cytotoxic, partial curve, poor fit] |  |
| COc1ccc(-c2nn(-c3ccccc3)cc2/C=N/Nc2ccc3ccccc3n2)cc1OC | inconclusive: 29.1 µM [cytotoxic, single point] |  |
| COc1ccc(C(=O)NCC2CCCN2S(=O)(=O)c2ccccc2)cc1OC (configuration not stated) |  | inactive: -20.4% |
| COc1cccc(N2CCN(C(=O)c3ccc(Cn4c(=O)[nH]c5cc(OC)c(OC)cc5c4=O)cc3)CC2)c1 |  | inactive: 12% |
| Clc1ccccc1SCc1nc2ccccc2[nH]1 | active: 20.6 µM |  |
| COc1ccc(NC(=O)CN(C)C(=O)CCCc2c[nH]c3ccccc23)cc1 | inconclusive: 20.6 µM [cytotoxic, single point] |  |
| Cc1nn(-c2ccc(F)cc2)c(Cl)c1/C=N/NC(=O)c1cccs1 | inconclusive: 3.66 µM [cytotoxic, partial curve] |  |
| Cc1ccc(N2C(=O)CC(N3CCSCC3)C2=O)c(C)c1 (configuration not stated) | inconclusive: 29.1 µM [rising, single point] |  |
| COc1ccc(-c2cc(C(F)(F)F)n3nc(C(=O)Nc4cc(C)on4)cc3n2)cc1OC | inconclusive: 3.26 µM [cytotoxic, partial curve, poor fit] |  |
| O=C1NC(c2ccncc2)Nc2ccccc21 (configuration not stated) |  | inactive: 18.1% |
| O=C(NCCc1ccc(OC(F)F)cc1)C1CC(=O)N(c2ccc3c(c2)OCCO3)C1 (configuration not stated) |  | inactive: 0% |
| Cc1ccc(S(=O)(=O)N(C)[C@H]2C[C@H]3c4[nH]c5ccccc5c4CCN3C[C@H]2[C@H](C)O)cc1 |  | inactive: -26.8% |
| CCC(=O)Nc1ccc(C(=O)CSc2nnc(-c3ccc(NS(=O)(=O)CC)cc3)o2)cc1OC |  | inactive: 22.4% |
| Cc1ccc(Sc2ncccc2/C=N/O)cc1 | inconclusive: 14.6 µM [rising, partial curve, poor fit] |  |
| COc1cc(CNC(C)c2ccccc2)cc(Br)c1OCc1ccccc1 (configuration not stated) | inconclusive: 29.1 µM [cytotoxic, single point] |  |
| Cn1c(=O)nc2n(Cc3ccccc3)c3cccc(Cl)c3cc-2c1=O | active: 20.6 µM |  |
| COc1cccc(NC(=O)N2CCC(NC(=O)C(Cc3cccc(C)c3)NC(C)=O)CC2)c1 (configuration not stated) | inconclusive: 29.1 µM [rising, single point] |  |
| O=C(NCc1cccnc1)/C(=C/c1ccc(-c2cccc(C(F)(F)F)c2)o1)NC(=O)c1ccccc1 | active: 16.4 µM |  |
| CC(=O)C12CCCCC1CC1[C@@H]3CC(C)C4=CC(=O)CC[C@]4(C)C3CC[C@@]12C (some centres not stated) | inconclusive: 25.9 µM [cytotoxic, single point] |  |
| Cc1c(Br)c([N+](=O)[O-])nn1CC(=O)NCc1cccs1 | inconclusive: 16.4 µM [cytotoxic, single point] |  |
| O=c1c(-c2cccc(Cl)c2)c[nH]n1-c1ccccc1 |  | inactive: -8.43% |
